{"source": "PubChem BioAssay AID504804 | Drosophila RNAi Screening Center, 2011", "test": "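Knock-downs shielding fly cells from apoptosis caused by DNA damage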 (primary screen)", "cells": "Drosophila Kc cells", "knock-down reagent": "long dsRNA against Drosophila genes, 0.5 µg dsRNA per well", "timing": "96 h (48 h knock-down, then 48 h drug)", "conditions": "doxorubicin 5 µg/ml for 48 h, added 48 h after dsRNA", "measurement": "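Viability measured as cellular ATP by luminescence after 48 h knock-down then 48 h doxorubicin at 5 µg/ml; unnormalised plate counts for each replicate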", "reading the numbers": "raw ATP luminescence: higher = more viable cells, protection from doxorubicin", "call rule": "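Active when both duplicate wells lie at least 2 SD above the plate mean and protection is confirmed by rescreening and independent dsRNAs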", "note": "The screen tested about 19,000 reagents; this is an unselected part of those with a known target gene and a result. Of all reagents, 47 (0.25%) are marked active. 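Signals are raw, not normalised; exact z-scores behind calls not deposited; actives needed confirmation, so some wells reaching 2 SD are inactive.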"}
{"target": "CG16896", "amplicon": "DRSC04284", "raw ATP luminescence, replicate 1": 88710, "raw ATP luminescence, replicate 2": 57933, "activity call": "inactive"}
{"target": "Lam (Lamin)", "amplicon": "DRSC03359", "raw ATP luminescence, replicate 1": 26360, "raw ATP luminescence, replicate 2": 35807, "activity call": "inactive"}
{"target": "GCS2alpha (Glucosidase 2 alpha subunit)", "amplicon": "DRSC21036", "raw ATP luminescence, replicate 1": 3.08e5, "raw ATP luminescence, replicate 2": 2.47e5, "activity call": "inactive"}
{"target": "CG7309", "amplicon": "DRSC03045", "raw ATP luminescence, replicate 1": 53333, "raw ATP luminescence, replicate 2": 75727, "activity call": "inactive"}
{"target": "CG5860", "amplicon": "DRSC15896", "raw ATP luminescence, replicate 1": 61360, "raw ATP luminescence, replicate 2": 72460, "activity call": "inactive"}
{"target": "CG14718", "amplicon": "DRSC14941", "raw ATP luminescence, replicate 1": 44557, "raw ATP luminescence, replicate 2": 26743, "activity call": "inactive"}
{"target": "hgo (homogentisate 1,2-dioxygenase)", "amplicon": "DRSC03544", "raw ATP luminescence, replicate 1": 39187, "raw ATP luminescence, replicate 2": 69953, "activity call": "inactive"}
{"target": "Uev1A (Ubiquitin-conjugating enzyme variant 1A)", "amplicon": "DRSC09763", "raw ATP luminescence, replicate 1": 44127, "raw ATP luminescence, replicate 2": 43550, "activity call": "inactive"}
{"target": "E2f1 (E2F transcription factor 1)", "amplicon": "DRSC16655", "raw ATP luminescence, replicate 1": 32920, "raw ATP luminescence, replicate 2": 26700, "activity call": "inactive"}
{"target": "CG17803", "amplicon": "DRSC15275", "raw ATP luminescence, replicate 1": 28470, "raw ATP luminescence, replicate 2": 31470, "activity call": "inactive"}
{"target": "Sld5", "amplicon": "DRSC14892", "raw ATP luminescence, replicate 1": 45990, "raw ATP luminescence, replicate 2": 39410, "activity call": "inactive"}
{"target": "CG11334", "amplicon": "DRSC14066", "raw ATP luminescence, replicate 1": 2.19e5, "raw ATP luminescence, replicate 2": 2.14e5, "activity call": "inactive"}
{"target": "CG11334", "amplicon": "DRSC14302", "raw ATP luminescence, replicate 1": 55640, "raw ATP luminescence, replicate 2": 60580, "activity call": "inactive"}
{"target": "unk (unkempt)", "amplicon": "DRSC17093", "raw ATP luminescence, replicate 1": 36413, "raw ATP luminescence, replicate 2": 34163, "activity call": "inactive"}
{"target": "CG6325", "amplicon": "DRSC16020", "raw ATP luminescence, replicate 1": 41097, "raw ATP luminescence, replicate 2": 22103, "activity call": "inactive"}
{"target": "CG14443", "amplicon": "DRSC17936", "raw ATP luminescence, replicate 1": 30450, "raw ATP luminescence, replicate 2": 43900, "activity call": "inactive"}
{"target": "CG4983", "amplicon": "DRSC02799", "raw ATP luminescence, replicate 1": 79870, "raw ATP luminescence, replicate 2": 67077, "activity call": "inactive"}
{"target": "cype (cyclope)", "amplicon": "DRSC02356", "raw ATP luminescence, replicate 1": 23900, "raw ATP luminescence, replicate 2": 23460, "activity call": "inactive"}
{"target": "crb (crumbs)", "amplicon": "DRSC16927", "raw ATP luminescence, replicate 1": 38940, "raw ATP luminescence, replicate 2": 40360, "activity call": "inactive"}
{"target": "mei-41 (meiotic 41)", "amplicon": "DRSC20350", "raw ATP luminescence, replicate 1": 2.33e5, "raw ATP luminescence, replicate 2": 2.52e5, "activity call": "inactive"}
{"target": "CG5623", "amplicon": "DRSC15848", "raw ATP luminescence, replicate 1": 63160, "raw ATP luminescence, replicate 2": 67110, "activity call": "inactive"}
{"target": "CG15773", "amplicon": "DRSC18079", "raw ATP luminescence, replicate 1": 43210, "raw ATP luminescence, replicate 2": 43800, "activity call": "inactive"}
{"target": "Gcn5 (Gcn5 acetyltransferase)", "amplicon": "DRSC11248", "raw ATP luminescence, replicate 1": 24207, "raw ATP luminescence, replicate 2": 22247, "activity call": "inactive"}
{"target": "AnxB9 (Annexin B9)", "amplicon": "DRSC14111", "raw ATP luminescence, replicate 1": 40393, "raw ATP luminescence, replicate 2": 37490, "activity call": "inactive"}
{"target": "Vmat (Vesicular monoamine transporter)", "amplicon": "DRSC06961", "raw ATP luminescence, replicate 1": 73010, "raw ATP luminescence, replicate 2": 62267, "activity call": "inactive"}
{"target": "Orc4 (Origin recognition complex subunit 4)", "amplicon": "DRSC04634", "raw ATP luminescence, replicate 1": 78803, "raw ATP luminescence, replicate 2": 63757, "activity call": "inactive"}
{"target": "CG10738", "amplicon": "DRSC09792", "raw ATP luminescence, replicate 1": 68197, "raw ATP luminescence, replicate 2": 71437, "activity call": "inactive"}
{"target": "NT5E-2 (Ecto-5'-nucleotidase 2)", "amplicon": "DRSC06893", "raw ATP luminescence, replicate 1": 55063, "raw ATP luminescence, replicate 2": 80563, "activity call": "inactive"}
{"target": "Rph (Rabphilin)", "amplicon": "DRSC17790", "raw ATP luminescence, replicate 1": 2.70e5, "raw ATP luminescence, replicate 2": 2.69e5, "activity call": "inactive"}
{"target": "Chro (Chromator)", "amplicon": "DRSC11630", "raw ATP luminescence, replicate 1": 23093, "raw ATP luminescence, replicate 2": 26093, "activity call": "inactive"}
{"target": "mthl15 (methuselah-like 15)", "amplicon": "DRSC01120", "raw ATP luminescence, replicate 1": 3.19e5, "raw ATP luminescence, replicate 2": 3.03e5, "activity call": "inactive"}
{"target": "CG14856", "amplicon": "DRSC14980", "raw ATP luminescence, replicate 1": 81120, "raw ATP luminescence, replicate 2": 66430, "activity call": "inactive"}
{"target": "CG42541", "amplicon": "DRSC17973", "raw ATP luminescence, replicate 1": 29830, "raw ATP luminescence, replicate 2": 32860, "activity call": "inactive"}
{"target": "CG42541", "amplicon": "DRSC18119", "raw ATP luminescence, replicate 1": 10030, "raw ATP luminescence, replicate 2": 11970, "activity call": "inactive"}
{"target": "CG42541", "amplicon": "DRSC18120", "raw ATP luminescence, replicate 1": 29020, "raw ATP luminescence, replicate 2": 48170, "activity call": "inactive"}
{"target": "PPO3 (Prophenoloxidase 3)", "amplicon": "DRSC04325", "raw ATP luminescence, replicate 1": 77207, "raw ATP luminescence, replicate 2": 58847, "activity call": "inactive"}

A stretch of the results above, as a working copy:
{"target": "unk (unkempt)", "amplicon": "DRSC17093", "raw ATP luminescence, replicate 1": 36413, "raw ATP luminescence, replicate 2": 34163, "activity call": "inactive"}
{"target": "CG6325", "amplicon": "DRSC16020", "raw ATP luminescence, replicate 1": 41097, "raw ATP luminescence, replicate 2": 22103, "activity call": "inactive"}
{"target": "CG14443", "amplicon": "DRSC17936", "raw ATP luminescence, replicate 1": 30450, "raw ATP luminescence, replicate 2": 43900, "activity call": "inactive"}
{"target": "CG4983", "amplicon": "DRSC02799", "raw ATP luminescence, replicate 1": 79870, "raw ATP luminescence, replicate 2": 67077, "activity call": "inactive"}
